PubChem BioAssay AID1224826 – NIAID | 2016

Assay: 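Knock-downs that raise or lower Tnf reporter signal after endotoxin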 (primary screen)
System: RAW264.7 G9 macrophages from mouse bearing reporters for p65 (GFP) and the Tnf promoter (mCherry)
Reagents: siRNA pool against mouse genes, 100 nM
Time to read-out: 16 h of LPS stimulation, after 2 days of siRNA transfection
Challenge: bacterial lipopolysaccharide (Salmonella minnesota R595), 10 ng/ml
Measurement: 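Imaged Tnf reporter mCherry in nuclei, minus background, normalised per plate to the median and expressed as robust z-scores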
Direction: Tnf reporter robust z-score: higher = stronger Tnf promoter reporter signal after LPS; Tnf reporter intensity: higher = stronger Tnf promoter reporter signal
Hit rule: 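Called active when robust z-score is at most -1.3, matching the median of the Tlr4 knock-down control, or over 3; control wells and wells with under 50 cells never active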
Meaning of the calls: active = Tnf reporter clearly lowered or raised; inactive = no clear change in Tnf reporter
The whole screen tested about 17,000 reagents; this is a part drawn at random. Of all reagents, about 1,110 (6.6%) got an active call. 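Active means lowered or raised reporter signal; replicate intensities are raw and not normalised per plate.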

Tnf reporter robust z-score	fewer than 50 cells in well	Tnf reporter intensity, replicate 1	Tnf reporter intensity, replicate 2	Call	target
1.44	enough cells in well	357	124	inactive	Hhatl
-0.68	enough cells in well	168	73.3	inactive	Dusp22
0.41	enough cells in well	328	249	inactive	Rem1
0.84	enough cells in well	197	228	inactive	Or10ag56
1.84	enough cells in well	276	259	inactive	Atp5mc1
-0.78	enough cells in well	165	114	inactive	Stap2
1.13	enough cells in well	307	109	inactive	Mier2
-0.41	enough cells in well	231	193	inactive	Serhl
	fewer than 50 cells per well; well left out of calls	208	53.4	inactive	Dnajc18
-0.26	enough cells in well	222	177	inactive	Csf2ra
-0.18	enough cells in well	155	184	inactive	Cpxm2
1.59	enough cells in well	349	155	inactive	Npy1r
0.27	enough cells in well	308	112	inactive	Tecta
-0.69	enough cells in well	193	39.2	inactive	Lypd9
-0.78	enough cells in well	205	131	inactive	Clcn7
3.67	enough cells in well	443	380	active	Gm15850
0.85	enough cells in well	369	90.3	inactive	Nsmce2
-0.86	enough cells in well	101	136	inactive	Plcxd3
-0.36	enough cells in well	180	77.2	inactive	Atp23
0.45	enough cells in well	264	97.3	inactive	1700084P21Rik
0.04	enough cells in well	242	202	inactive	Ctsl
-1.4	enough cells in well	103	67.3	active	Enkd1
-1.71	enough cells in well	114	56.3	active	Got1
0.16	enough cells in well	199	181	inactive	Cyp4f13
-0.79	enough cells in well	95.2	99.1	inactive	Miga1
-0.6	enough cells in well	106	155	inactive	Plch2
-0.16	enough cells in well	249	81.1	inactive	Ndufb9
	fewer than 50 cells per well; well left out of calls	92.4	35.9	inactive	Sult3a1
1.6	enough cells in well	153	154	inactive	Stau2
2.91	enough cells in well	237	72.3	inactive	Zscan12
-0.52	enough cells in well	157	38.5	inactive	Meaf6
0.55	enough cells in well	263	141	inactive	Lrrn3
-1.82	enough cells in well	89.7	34.2	active	Kat6b
0.73	enough cells in well	174	80.8	inactive	Or56b1
0.34	enough cells in well	262	83.3	inactive	Ncbp3
0.66	enough cells in well	287	177	inactive	Fhl1
0.89	enough cells in well	223	67.4	inactive	Zc2hc1a
0.69	enough cells in well	295	269	inactive	Tradd
-0.34	enough cells in well	129	97.1	inactive	Sdc2
0.11	enough cells in well	150	68.8	inactive	Wdr47
2.49	enough cells in well	283	233	inactive	Mtpap
	fewer than 50 cells per well; well left out of calls	147	192	inactive	Med9
-0.61	enough cells in well	174	89.3	inactive	Krtap14
0.46	enough cells in well	211	159	inactive	Khdrbs2
1.77	enough cells in well	343	196	inactive	Arid2
-0.92	enough cells in well	103	140	inactive	Twf1
-0.84	enough cells in well	213	99.7	inactive	Ntn3
-0.87	enough cells in well	124	97.5	inactive	Nlrc4
2.19	enough cells in well	337	249	inactive	Ehbp1l1
-1.18	enough cells in well	66.1	101	inactive	Pcdhgb8
0.94	enough cells in well	94.9	200	inactive	Or2ag16
	fewer than 50 cells per well; well left out of calls	204	90	inactive	Sil1
-0.55	enough cells in well	215	134	inactive	Hrg
-0.01	enough cells in well	248	239	inactive	Siah2
	fewer than 50 cells per well; well left out of calls	139	45.8	inactive	Nob1
1.04	enough cells in well	414	279	inactive	Rhov
-0.12	enough cells in well	188	124	inactive	Kcng4
0.59	enough cells in well	232	174	inactive	Nxph3
-0.72	enough cells in well	133	121	inactive	Asb16
-1.74	enough cells in well	66.6	55.1	active	Or2t48
0.2	enough cells in well	262	205	inactive	Cpox
-0.5	enough cells in well	97.4	135	inactive	Ift52
0.1	enough cells in well	217	260	inactive	Epc1
4.82	enough cells in well	260	307	active	Or8b1
0.44	enough cells in well	319	189	inactive	Phip
-0.17	enough cells in well	238	176	inactive	Psmb9
2.04	enough cells in well	274	257	inactive	Abca1
-0.26	enough cells in well	157	149	inactive	Atp5pb
-1.67	enough cells in well	90.5	66.3	active	Xtbd1
1.34	enough cells in well	296	339	inactive	Cybb
0.78	enough cells in well	204	203	inactive	Hacd4
-1.12	enough cells in well	222	31.9	inactive	Nudt22
-0.43	enough cells in well	118	62.4	inactive	Vmn2r10
0.06	enough cells in well	246	152	inactive	Klra5
	fewer than 50 cells per well; well left out of calls	49	57	inactive	Rpl7

Called active (from the list above):
Tnf reporter robust z-score	fewer than 50 cells in well	Tnf reporter intensity, replicate 1	Tnf reporter intensity, replicate 2	Call	target
3.67	enough cells in well	443	380	active	Gm15850
-1.4	enough cells in well	103	67.3	active	Enkd1
-1.71	enough cells in well	114	56.3	active	Got1
-1.82	enough cells in well	89.7	34.2	active	Kat6b
-1.74	enough cells in well	66.6	55.1	active	Or2t48
4.82	enough cells in well	260	307	active	Or8b1
-1.67	enough cells in well	90.5	66.3	active	Xtbd1
